From patent US20260055096A1, “AZOLE PESTICIDAL COMPOUNDS” (BASF SE, priority 2022, published 2026)
Some entries share one result that the patent states for a list of compounds.

Tests used:
Format in all cases: in vivo
[1] = tested on: tobacco budworm (Heliothis virescens); test: Example B.5: Action on tobacco budworm (Heliothis virescens), egg and larval mortality on insect diet; conditions: 800 ppm; egg and larval mortality after 5 days
Method: For evaluating control of tobacco budworm (Heliothis virescens) the test unit consisted of 96-well-microtiter plates containing an insect diet and 15-25 H. virescens eggs.
The compounds were formulated using a solution containing 75% v/v water and 25% v/v DMSO. Different concentrations of formulated compounds were sprayed onto the insect diet at 10 μl, using a custom-built micro atomizer, at two replications.
After application, microtiter plates were incubated at about 28±1C and about 80±5% relative humidity for 5 days. Egg and larval mortality were then visually assessed.

[2] = tested on: Southern armyworm (Spodoptera eridania), 2nd instar larvae; test: Example B.7: Action on southern armyworm (Spodoptera eridania), 2nd instar larvae on sprayed lima bean plants; conditions: 300 ppm; 4 days after treatment
Method: The active compounds were formulated by a Tecan liquid handler in 100% cyclohexanone as a 10,000-ppm solution supplied in tubes. The 10,000-ppm solution was serially diluted in 100% cyclohexanone to make interim solutions. These served as stock solutions for which final dilutions were made by the Tecan in 50% acetone:50% water (v/v) into 10 or 20 ml glass vials. A nonionic surfactant (Kinetic®) was included in the solution at a volume of 0.01% (v/v). The vials were then inserted into an automated electrostatic sprayer equipped with an atomizing nozzle for application to plants/insects.
Lima bean plants (variety Sieva) were grown 2 plants to a pot and selected for treatment at the 1st true leaf stage. Test solutions were sprayed onto the foliage by an automated electrostatic plant sprayer equipped with an atomizing spray nozzle. The plants were dried in the sprayer fume hood and then removed from the sprayer. Each pot was placed into perforated plastic bags with a zip closure. About 10 to 11 armyworm larvae were placed into the bag and the bags zipped closed. Test plants were maintained in a growth room at about 25° C. and about 20-40% relative humidity for 4 days, avoiding direct exposure to fluorescent light (24-hour photoperiod) to prevent trapping of heat inside the bags. Mortality and reduced feeding were assessed 4 days after treatment, compared to untreated control plants.

[3] = tested on: Orchid thrips (Dichromothrips corbetti); test: Example B.2: Action on orchid thrips (Dichromothrips corbetti), floral-immersion technique; conditions: 300 ppm; 72 hours after treatment
Method: Dichromothrips corbetti adults used for bioassay were obtained from a colony maintained continuously under laboratory conditions. For testing purposes, the test compound is diluted in a 1:1 mixture of acetone:water (vol:vol), plus Kinetic® HV at a rate of 0.01% v/v.
Thrips potency of each compound was evaluated by using a floral-immersion technique. All petals of individual, intact orchid flowers were dipped into treatment solution and allowed to dryin Petri dishes. Treated petals were placed into individual re-sealable plastic along with about 20 adult thrips. All test arenas were held under continuous light and a temperature of about 28° C. for duration of the assay. After 3 days, the numbers of live thrips were counted on each petal. The percent mortality was recorded 72 hours after treatment.

[4] = tested on: boll weevil (Anthonomus grandis); test: Example B.3: Action on boll weevil (Anthonomus grandis), egg and larval mortality on insect diet; conditions: 800 ppm; egg and larval mortality after 5 days
Method: For evaluating control of boll weevil (Anthonomus grandis) the test unit consisted of 96-well-microtiter plates containing an insect diet and 5-10 A. grandis eggs.
The compounds were formulated using a solution containing 75% (v/v) water and 25% (v/v) DMSO. Different concentrations of formulated compounds were sprayed onto the insect diet at […], using a custom-built micro atomizer, at two replications.
After application, microtiter plates were incubated at about 25±1C and about 75±5% relative humidity for 5 days. Egg and larval mortality were then visually assessed.

[5] = tested on: Diamond back moth (Plutella xylostella); test: Example B.8: Action on diamond back moth (Plutella xylostella), egg and larval mortality on insect diet in microtiter plates; conditions: 800 ppm; egg and larval mortality after 5 days
Method: For evaluating control of diamond back moth (Plutella xylostella) the test unit consisted of 96-well-microtiter plates containing an insect diet and 15-25 P. xylostella eggs. The compounds or mixtures were formulated using a solution containing 75% water and 25% DMSO. Different concentrations of formulated compounds or mixtures were sprayed onto the insect diet at 5 μl, using a custom-built micro atomizer, at two replications. For experimental mixtures in these tests identical volumes of both mixing partners at the desired concentrations respectively, were mixed together. After application, microtiter plates were incubated at 28±1° C., 80±5% RH for 5 days. Egg and larval mortality was then visually assessed.

[6] = tested on: yellow fever mosquito (Aedes aegypti); conditions: 800 ppm; larval mortality after 2 days
Method: For evaluating control of yellow fever mosquito (Aedes aegypti) the test unit consisted of 96-well-microtiter plates containing 200 μl of tap water per well and 5-15 freshly hatched A. aegypti larvae.
The active compounds or mixtures were formulated using a solution containing 75% (v/v) water and 25% (v/v) DMSO. Different concentrations of formulated compounds or mixtures were sprayed onto the insect diet at 2.5 μl, using a custom-built micro atomizer, at two replications.
For experimental mixtures in these tests identical volumes of both mixing partners at the desired concentrations respectively, were mixed together.
After application, microtiter plates were incubated at 28 #1° C., 80 #5% RH for 2 days. Larval mortality was then visually assessed.

CCn1nc(-c2ccc(NC(=O)/N=C3\SCC(=O)N3c3cc(C)ccc3C(C)C)c(Cl)c2)c(C)c1NC(=O)c1ccc(OC(F)(F)F)cc1 [Example C-75]
mortality in comparison with untreated controls [1]: at least 75% | mortality in comparison with untreated controls [2]: at least 75% | mortality in comparison with untreated controls [3]: at least 75% | mortality in comparison with untreated controls [4]: at least 75% | mortality in comparison with untreated controls [5]: at least 75% | mortality in comparison with untreated controls [6]: at least 50%

Cc1ccc(C(C)C)c(N2C(=O)CS/C2=N\C(=O)Nc2ccc(-c3nn(C4CC4)c(NC(=O)c4ccc(OC(F)(F)F)cc4)c3C)cc2Cl)c1 [Example C-76]
mortality in comparison with untreated controls [1]: at least 75% | mortality in comparison with untreated controls [2]: at least 75% | mortality in comparison with untreated controls [3]: at least 75% | mortality in comparison with untreated controls [4]: at least 75% | mortality in comparison with untreated controls [5]: at least 75% | mortality in comparison with untreated controls [6]: at least 50%

CCn1nc(-c2ccc(NC(=O)/N=C3\SCC(=O)N3c3cc(C)ccc3C(C)C)c(Cl)c2)nc1NC(=O)c1ccc(OC(F)(F)F)cc1 [Example C-77]
mortality in comparison with untreated controls [1]: at least 75% | mortality in comparison with untreated controls [2]: at least 75% | mortality in comparison with untreated controls [3]: at least 75% | mortality in comparison with untreated controls [4]: at least 75% | mortality in comparison with untreated controls [5]: at least 75% | mortality in comparison with untreated controls [6]: at least 50%

Cc1ccc(C(C)C)c(N2C(=O)CS/C2=N\C(=O)Nc2ccc(-c3nc(NC(=O)c4ccc(OC(F)(F)F)cc4)n(CC#N)n3)cc2Cl)c1 [Example C-78]
mortality in comparison with untreated controls [1]: at least 75% | mortality in comparison with untreated controls [2]: at least 75% | mortality in comparison with untreated controls [3]: at least 75% | mortality in comparison with untreated controls [4]: at least 75% | mortality in comparison with untreated controls [5]: at least 75% | mortality in comparison with untreated controls [6]: at least 50%

Cc1ccc(C(C)C)c(N2C(=O)CS/C2=N\C(=O)Nc2ccc(-c3nn(C)c(NC(=O)c4ccc(F)c(F)c4)c3C)cc2Cl)c1 [Example C-80]
mortality in comparison with untreated controls [1]: at least 75% | mortality in comparison with untreated controls [2]: at least 75% | mortality in comparison with untreated controls [3]: at least 75% | mortality in comparison with untreated controls [4]: at least 75% | mortality in comparison with untreated controls [5]: at least 75% | mortality in comparison with untreated controls [6]: at least 50%

Cc1ccc(C(C)C)c(N2C(=O)CS/C2=N\C(=O)Nc2ccc(-c3nn(C)c(NC(=O)c4cc(F)c(F)c(F)c4)c3C)cc2Cl)c1 [Example C-81]
mortality in comparison with untreated controls [1]: at least 75% | mortality in comparison with untreated controls [2]: at least 75% | mortality in comparison with untreated controls [3]: at least 75% | mortality in comparison with untreated controls [4]: at least 75% | mortality in comparison with untreated controls [5]: at least 75% | mortality in comparison with untreated controls [6]: at least 50%

Cc1ccc(C(F)(F)F)c(N2C(=O)CS/C2=N\C(=O)Nc2ccc(-c3nc(NC(=O)c4ccc(OC(F)(F)F)cc4)n(C)n3)cc2Cl)c1 [Example C-83]
mortality in comparison with untreated controls [1]: at least 75% | mortality in comparison with untreated controls [2]: at least 75% | mortality in comparison with untreated controls [3]: at least 75% | mortality in comparison with untreated controls [4]: at least 75% | mortality in comparison with untreated controls [5]: at least 75% | mortality in comparison with untreated controls [6]: at least 50%

CC(C)c1ccc(N(C)C)cc1N1C(=O)CS/C1=N\C(=O)Nc1ccc(-c2nc(NC(=O)c3ccc(OC(F)(F)F)cc3)n(C)n2)cc1Cl [Example C-84]
mortality in comparison with untreated controls [1]: at least 75% | mortality in comparison with untreated controls [2]: at least 75% | mortality in comparison with untreated controls [3]: at least 75% | mortality in comparison with untreated controls [4]: at least 75% | mortality in comparison with untreated controls [5]: at least 75% | mortality in comparison with untreated controls [6]: at least 50%

COc1ccc(C(C)C)c(N2C(=O)CS/C2=N\C(=O)Nc2ccc(-c3nc(NC(=O)c4ccc(OC(F)(F)F)cc4)n(C)n3)cc2Cl)c1 [Example C-85]
mortality in comparison with untreated controls [1]: at least 75% | mortality in comparison with untreated controls [2]: at least 75% | mortality in comparison with untreated controls [3]: at least 75% | mortality in comparison with untreated controls [4]: at least 75% | mortality in comparison with untreated controls [5]: at least 75% | mortality in comparison with untreated controls [6]: at least 50%

Cc1ccc(C(C)C)c(N2C(=O)CS/C2=N\C(=O)Nc2ccc(-c3nn(CC#N)c(NC(=O)c4ccc(OC(F)(F)F)cc4)c3C)cc2Cl)c1 [Example C-86]
mortality in comparison with untreated controls [1]: at least 75% | mortality in comparison with untreated controls [2]: at least 75% | mortality in comparison with untreated controls [3]: at least 75% | mortality in comparison with untreated controls [4]: at least 75% | mortality in comparison with untreated controls [5]: at least 75% | mortality in comparison with untreated controls [6]: at least 50%

CCN(C(=O)c1ccc(OC(F)(F)F)cc1)c1nc(-c2ccc(NC(=O)N=C3SCC(=O)N3c3cc(C)ccc3C(C)C)c(Cl)c2)nn1C [Example C-87]
mortality in comparison with untreated controls [1]: at least 75% | mortality in comparison with untreated controls [2]: at least 75% | mortality in comparison with untreated controls [3]: at least 75% | mortality in comparison with untreated controls [4]: at least 75% | mortality in comparison with untreated controls [5]: at least 75% | mortality in comparison with untreated controls [6]: at least 50%

Cc1ccc(C(C)C)c(N2C(=O)CSC2=NC(=O)Nc2ccc(-c3nn(C)c(NC(=O)c4cc(F)c(F)cc4F)c3C)cc2Cl)c1 [Example C-88]
mortality in comparison with untreated controls [1]: at least 75% | mortality in comparison with untreated controls [2]: at least 75% | mortality in comparison with untreated controls [3]: at least 75% | mortality in comparison with untreated controls [4]: at least 75% | mortality in comparison with untreated controls [5]: at least 75% | mortality in comparison with untreated controls [6]: at least 50%

Cc1ccc(C(C)C)c(N2C(=O)CSC2=NC(=O)Nc2ccc(-c3nn(C)c(NC(=O)c4ccc(C#N)c(F)c4)c3C)cc2Cl)c1 [Example C-90]
mortality in comparison with untreated controls [1]: at least 75% | mortality in comparison with untreated controls [2]: at least 75% | mortality in comparison with untreated controls [3]: at least 75% | mortality in comparison with untreated controls [4]: at least 75% | mortality in comparison with untreated controls [5]: at least 75% | mortality in comparison with untreated controls [6]: at least 50%

Cc1ccc(C(C)C)c(N2C(=O)CSC2=NC(=O)Nc2ccc(-c3nn(C)c(NC(=O)c4ccc(F)c(Cl)c4)c3C)cc2Cl)c1 [Example C-92]
mortality in comparison with untreated controls [1]: at least 75% | mortality in comparison with untreated controls [2]: at least 75% | mortality in comparison with untreated controls [3]: at least 75% | mortality in comparison with untreated controls [4]: at least 75% | mortality in comparison with untreated controls [5]: at least 75% | mortality in comparison with untreated controls [6]: at least 50%

Cc1ccc(C(C)C)c(N2C(=O)CSC2=NC(=O)Nc2ccc(-c3nc(NC(=O)c4ccc(Cl)c(Cl)c4)n(C)n3)cc2Cl)c1 [Example C-93]
mortality in comparison with untreated controls [1]: at least 75% | mortality in comparison with untreated controls [2]: at least 75% | mortality in comparison with untreated controls [3]: at least 75% | mortality in comparison with untreated controls [4]: at least 75% | mortality in comparison with untreated controls [5]: at least 75% | mortality in comparison with untreated controls [6]: at least 50%
